Primary screen of a compound library

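Viability assay of Plasmodium falciparum sporozoites; the read-out is not stated. The concentration is filed as 10 mM, unlikely as a test dose, so the dose is not known. The record gives no direction; compounds that gave an IC50 in retests scored well above the rest, so higher reads as lower viability. Strong results were mostly tested again. About 34,000 compounds were tested under these conditions; 0.84% (about 280) showed 50% or more at least once.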

Each number is a percent effect as filed.
The controls that fix the scale are not given in the record; negative values are as filed.
Compounds were drawn at random from those tested, without regard to their results.
Two or more numbers in one place are separate tests of the same structure; such repeats can differ widely.

With O=C(O)c1nnn(-c2ccc(F)c(F)c2)c1-c1ccncc1 the screen gave 12.51%. With Cc1nccn1CC1CCCN1S(=O)(=O)Cc1ccccc1 (stereo unspecified) the screen gave -7.812%. CCC(CC)(CCCNC(=O)c1c(C)noc1C)C1OCCO1 read 5.379%. Result for CCS(=O)(=O)N1CCc2c(cccc2NC(=O)NCCOC)C1 was 0.3382%. Result for COCCO[C@H]1CCN(Cc2cnn(C)c2)[C@H]1Cc1cccnc1 was -0.08772%. For CCn1cnnc1C1CCN(C(=O)c2cccc3c2ccn3C)CC1 the result was -5.233%.

For O=c1c(CN2CCCCCC2)coc(O)c1CN1CCCCCC1 the result was -2.839%. For Cc1ccc(S(=O)(=O)NC(=O)c2cccc(OCC(N)=O)c2)s1 the result was 17.68%. Result for COc1ccccc1OCCC(=O)N1CCCCC1c1nccs1 (stereo unspecified) was -5.924%. Result for O=C(O)C(F)(F)F.O=C(O)C(F)(F)F.O=C(c1cccnc1)N1CCC2(CC1)COC(COc1ccccn1)C2 (stereo unspecified) was -12.17%. For Cc1nn(C)c(C)c1C1COCCN1C(=O)CCc1ccccc1 (stereo unspecified) the result was 3.648%. With CCc1noc(CN2CCN(CCO)CC2)n1 the screen gave 4.179%.

Result for CCc1nc(C2CCCN2CCCc2nc3ccccc3o2)no1 (stereo unspecified) was 10.3%. CC(C)c1nsc(N2CCn3c(nnc3-c3ccccc3)C2)n1 read -17.01%. Cc1ccc(CN2CCC(c3nnc(CN4CCCCC4)n3C)CC2)o1 gave -1.767%. Result for Cc1cnn(C2CN(CC(=O)NCCOc3ccccc3)C2)c1 was -4.937%. Result for CC(C)Oc1nnc(SCC(=O)NCC(=O)N2CCCC2)s1 was 6.326%. CNc1cccc(C2CCCN(C(=O)c3cscn3)C2)n1 (stereo unspecified) gave 6.329%.

With COc1c(C)cnc(CNC(=O)c2cc(C)nc3c2c(C)nn3C)c1C the screen gave -6.946%. CC1(C)CNC(=O)CN(C(=O)CCc2ccccc2)C1 gave -6.22%. CN(C)[C@H]1CCCCN(C(=O)CCc2csc(N)n2)C1 gave 1.143%. With CCc1cc(N(C)Cc2ccncn2)n2nc(C)c(C)c2n1 the screen gave 0.4615%. With O=C([C@@H](O)Cc1ccccc1)N1CCCn2cncc2C1 the screen gave -14%. CN(C)C(=O)NC1COC2(CCN(S(=O)(=O)c3ccccc3)CC2)C1 (stereo unspecified) gave 2.189% and 3.506% and 9.235%.

With c1ccc2oc(CCCN3CCCC3Cn3cncn3)nc2c1 (stereo unspecified) the screen gave -13.99% and -3.091% and -8.413%. With OCC(CO)Nc1ccc2ccc(Cl)c(Cl)c2n1 the screen gave 11.75%. For NC1CCCc2nc(-c3ccccc3)ncc21 (stereo unspecified) the result was 8.421%. Cc1cnn(CC2CCCCN2C(=O)Cc2csc(C)n2)c1 (stereo unspecified) read -24.34%. COc1ccc(-c2cccc(CC3(C(=O)O)CCOCC3)c2)cc1 gave 10.01%. Cc1ccsc1C(=O)N1CCc2ncc(CN3CCCC3)n2CC1.O=C(O)C(F)(F)F gave -6.048%.

Result for c1ccc2sc(CN3CCCC3c3noc(C4CC4)n3)nc2c1 (stereo unspecified) was 57.55% and 55.22% and 51.03%. Result for CCN(CC)S(=O)(=O)c1ccc2c(c1)N(Cc1ccccn1)C(=O)CS2 was 0.4476%. Result for Cc1ccc(-c2noc(C3CCN3C(=O)c3ccn(C)n3)n2)s1 (stereo unspecified) was 2.887%. For Cc1ccc(C2(C(=O)NCCCn3cccn3)CCOCC2)cc1 the result was -25.15% and -19.39%. Result for Cc1cc(C)n(CC2CN(CC(=O)N3CCNC3=O)CCO2)n1 (stereo unspecified) was 7.938%. CC(C)N(C)Cc1cc(=O)n2c(n1)CN(C(=O)c1ccc[nH]1)CCC2 gave 0.5063%.

CC(C)n1cc(C(=O)N2CCN(c3cccc(C(F)(F)F)c3)CC2)cn1 read -23.54%. CCC(=O)N1CCC2(CC1)COCCN2Cc1ccc(F)cc1.O=C(O)C(F)(F)F gave -2.021%. Result for COC(=O)c1cccc(NC(=O)CCn2nc(-c3cccs3)oc2=O)c1 was -3.091%. For CCOc1ccc(Cl)c(C(=O)N2CCN(c3ccncc3)CC2)n1 the result was -4.554%. For CCc1nnsc1C(=O)N(C)Cc1nnc2n1CCC2 the result was 4.211%. COCC(=O)N1CCC(c2cc(C(F)(F)F)c3c(C)noc3n2)CC1 read 6.257%.

CC(C)c1nn(C)c(N(C)C)c1CNCc1ccccc1CN(C)C gave 10.55%. With Cc1cccc(CCC(=O)N2CCOCC2c2c(C)n[nH]c2C)c1 (stereo unspecified) the screen gave 3.896%. With Cc1occc1C(=O)Nc1cnn(CCN2CCOCC2)c1 the screen gave -0.0993%. With OCC1CCCCN1c1ccc(-c2nc(-c3ccccc3F)no2)cn1 (stereo unspecified) the screen gave 104% and 108.6% and 106.3%. O=S(=O)(NCc1ccccc1Cn1cncn1)N1CCCCC1 read 9.692%. [H][C@@]12CS(=O)(=O)C[C@]1([H])N(Cc1ccc3occc3c1)CCN2C(=O)N(C)C gave -5.182%.

Result for O=C(O)CC(O)(CC(=O)O)C(=O)O.[H][C@@]12CC[C@@](O)(c3ccc(C)cn3)[C@]1([H])CN(Cc1cccc(F)c1F)C2 was 11.33%. CCCn1ccc(C(=O)N2CCC(C)CC2)n1 read -7.852%. With O=C(O)C(F)(F)F.[H][C@@]12CCN(c3cccnc3)C[C@]1([H])CN(C(=O)C1CCCC1)C2 the screen gave 8.081%. With O=C(O)C(F)(F)F.[H][C@]12CCC[C@@]1(COc1ccccn1)CN(S(=O)(=O)C1CC1)C2 the screen gave -1.316%. Result for COC(=O)CN1CCN(c2nc3c(s2)c(C)nn3C)C(C)C1=O (stereo unspecified) was -6.272%. With COC1CCCOC12CCN(C(=O)NCCc1cccs1)CC2 (stereo unspecified) the screen gave 22.4%.

Cc1sc2c(C3CCCN(C)C3)nc(C)n2c1C (stereo unspecified) gave 13.2%. For CCc1nc(CN2CCCC(NCc3nnc(C4CC4)o3)C2)no1 (stereo unspecified) the result was 10.64%. With CS(=O)(=O)NCc1cc2n(n1)CCCN(Cc1ccc(Cl)s1)C2 the screen gave -7.607%. [H][C@]12C[C@@H](CN3CCCC3)N(C)[C@@]1([H])CCN(C(=O)c1ccsc1)C2 read -8.123%. CCc1ccc(CNC(=O)CCc2nnc(-c3ccc(C)s3)o2)nc1 read -20.24%.

The last 7 entries again:

{"compound": "COC(=O)CN1CCN(c2nc3c(s2)c(C)nn3C)C(C)C1=O", "stereo": "stereo unspecified", "percent effect": -6.272}
{"compound": "COC1CCCOC12CCN(C(=O)NCCc1cccs1)CC2", "stereo": "stereo unspecified", "percent effect": 22.4}
{"compound": "Cc1sc2c(C3CCCN(C)C3)nc(C)n2c1C", "stereo": "stereo unspecified", "percent effect": 13.2}
{"compound": "CCc1nc(CN2CCCC(NCc3nnc(C4CC4)o3)C2)no1", "stereo": "stereo unspecified", "percent effect": 10.64}
{"compound": "CS(=O)(=O)NCc1cc2n(n1)CCCN(Cc1ccc(Cl)s1)C2", "percent effect": -7.607}
{"compound": "[H][C@]12C[C@@H](CN3CCCC3)N(C)[C@@]1([H])CCN(C(=O)c1ccsc1)C2", "percent effect": -8.123}
{"compound": "CCc1ccc(CNC(=O)CCc2nnc(-c3ccc(C)s3)o2)nc1", "percent effect": -20.24}

Source: ChEMBL document CHEMBL3988442, “University of Dundee, Small-Polar-MMV Screening Library” (2021).